Measurements reported in PubChem BioAssay AID1259405 (NCATS, 2018)
The deposit covers about 50,000 reagents; below is an unselected part. In the full data, about 4,000 (8%) are marked active. 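Mouse siRNA library applied to hamster cells; one well for each siRNA.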 Unmarked entries are inactive. Reagents against one gene are numbered here. No sequences are given here.

Purpose: 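Knock-downs that lift recombinant protein yield in hamster ovary cells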 (primary screen)
Cells: Chinese hamster CHO-K1 ovary cells with stable secreted eGFP expression
Reagents: single siRNA against mouse genes, 0.8 pmol siRNA per well (2 µl of 400 nM stock)
Duration: 3 days
Detection: 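Percent of the per-plate non-targeting control median for intracellular GFP per well by laser scanning cytometry and for cell viability by ATP luminescence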
Direction: GFP, % of control: higher = more GFP per well, higher productivity; viability (ATP), % of control: higher = more viable cells (more ATP)
Call rule: 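Called active when intracellular GFP, relative to negative control, is at or above 120%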

gene symbol	reagent no.	GFP, % of control	viability (ATP), % of control
Ccdc34	1	75.6	56.8
Ccdc34	2	58.5	61.4
Ccdc34	3	87	90.9
Sema3c	1	75.9	78.3
Sema3c	2	69.7	79.5
Sema3c	3	58.5	50.7
Or4z4	1	49.4	59.5
Or4z4	2	57.4	109
Or4z4	3	65.3	91.5
Map3k7cl	1	110	86.7
Map3k7cl	2	32.2	54.3
Map3k7cl	3	104	98.6
Dbil5	1	105	92.3
Dbil5	2	83.8	72.6
Dbil5	3	75.6	51.6
Mettl16	1	72.1	90.2
Mettl16	2	55.1	85.6
Mettl16	3	101	64.7
Mtm1	1	92.5	87.1
Mtm1	2	93	59.6
Mtm1	3	95.5	92
R3hdm1	1	111	76.3
R3hdm1	2	122 (active)	82.6
R3hdm1	3	31.1	28.6
Hba-x	1	112	49.7
Hba-x	2	173 (active)	69
Hba-x	3	96.1	79.1
Cpsf4l	1	75.9	99.6
Cpsf4l	2	89.2	32.5
Cpsf4l	3	119	127
1700012B09Rik	1	65.7	73.4
1700012B09Rik	2	87.7	77.4
1700012B09Rik	3	109	92.5
Krt84	1	48.1	76.5
Krt84	2	91	55.2
Zbtb10	1	68.7	66
Zbtb10	2	62.7	87.1
Zbtb10	3	53.6	53.2
Rnd3	1	132 (active)	90.7
Rnd3	2	97.1	77.3
Rnd3	3	50.7	46.7
Tril	1	115	142
Tril	2	101	103
Tril	3	46.2	31.6
Cltrn	1	115	93.5
Cltrn	2	75.7	95
Cltrn	3	95.6	95.6
Ppih	1	95.5	92.6
Ppih	2	92.3	71.1
Ppih	3	85.2	66.4
Mia	1	48.4	35
Mia	2	52.8	43.5
Mia	3	69.5	80.2
Ssu72	1	75.7	80.5
Ssu72	2	74.4	70.4
Polr2f	1	81.6	111
Polr2f	2	66.3	55.9
Polr2f	3	65.6	57.8

6 entries from above, arranged by “GFP, % of control”, highest first.
gene symbol	reagent no.	GFP, % of control	viability (ATP), % of control
Map3k7cl	1	110	86.7
Dbil5	1	105	92.3
Map3k7cl	3	104	98.6
Or4z4	3	65.3	91.5
Or4z4	2	57.4	109
Map3k7cl	2	32.2	54.3
